PubChem BioAssay AID1224830, NIAID – 2016

- Purpose: 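Host factors that control LPS-induced TNF expression in human macrophages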 (primary screen)
- Cells: human THP-1 monocytic leukaemia cells, TNF dual-luciferase reporter clone, PMA-differentiated to macrophage-like cells
- Knock-down reagent: siRNA pool against human genes, 50 nM
- Timing: LPS for 4 h, given about 3 days after siRNA transfection
- Treatment: bacterial LPS (TLR4 ligand), 10 ng/ml
- Measurement: 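TNF firefly reporter luminescence divided by renilla, normalised to the plate median, then turned into a robust z-score for each replicate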
- Direction: TNF reporter robust z-score: higher = stronger TNF reporter response to LPS
- Active means: 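a well is active when its z-score exceeds 2.8 or falls below -1.5; control wells carry no call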
Shown is one part, drawn at random, of about 18,000 reagents tested. About 2,900 of all reagents (16%) were called active. 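Calls are made per well; low scores hint the gene aids the LPS response, high scores that it dampens it.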 Repeated entries: four replicate wells of each siRNA pool.

| target gene | TNF reporter robust z-score | outcome |
| --- | --- | --- |
| GALR2 | -0.3 | inactive |
| GALR2 | -0.17 | inactive |
| GALR2 | -0.54 | inactive |
| GALR2 | 0.04 | inactive |
| ACVR1 | 0.13 | inactive |
| ACVR1 | 0.26 | inactive |
| ACVR1 | 0.48 | inactive |
| ACVR1 | 1 | inactive |
| DNAAF10 | -0.29 | inactive |
| DNAAF10 | -1.04 | inactive |
| DNAAF10 | -0.67 | inactive |
| DNAAF10 | -0.25 | inactive |
| PCDH9 | 0.17 | inactive |
| PCDH9 | 0.45 | inactive |
| PCDH9 | 0.48 | inactive |
| PCDH9 | 1.34 | inactive |
| ZNF587 | -0.21 | inactive |
| ZNF587 | -0.03 | inactive |
| ZNF587 | 0.35 | inactive |
| ZNF587 | 0 | inactive |
| RPL10 | -0.5 | inactive |
| RPL10 | -0.01 | inactive |
| RPL10 | -0.44 | inactive |
| RPL10 | -0.31 | inactive |
| H4C2 | -0.09 | inactive |
| H4C2 | 0.01 | inactive |
| H4C2 | 0.08 | inactive |
| H4C2 | 0.5 | inactive |
| GNS | 1.33 | inactive |
| GNS | 0.9 | inactive |
| GNS | 0.97 | inactive |
| GNS | 0.52 | inactive |
| KNTC1 | -1.28 | inactive |
| KNTC1 | 0.16 | inactive |
| KNTC1 | 0.62 | inactive |
| KNTC1 | 0.88 | inactive |
| CTRC | -0.39 | inactive |
| CTRC | -1.27 | inactive |
| CTRC | 0.69 | inactive |
| CTRC | 0.79 | inactive |
| SDF2 | 0.57 | inactive |
| SDF2 | 1.41 | inactive |
| SDF2 | 0.85 | inactive |
| SDF2 | 1.05 | inactive |
| EFR3A | 0.2 | inactive |
| EFR3A | -0.47 | inactive |
| EFR3A | -0.81 | inactive |
| EFR3A | -0.57 | inactive |
